To fix the notation:
B1: il10ra_site1_normal_mot_8756ee2cf497b5429c717dfc0c0bcfd6_0001_000000186_0001_1_13_H_._HHH_b1_02515_0001_0000400033_0000001_0 (protein)
chain: SSSSSDASRELYELLREIVELIHEGDPEEARELIREAEELAEEAGNDVFLAQLEYLLRHISSSSS
B2: il10ra_site1_normal_mot_HHH_b1_00992_000000182_0001_23_40_H_._HHH_b2_04876_af2_0001_0001000030_0000001_0 (protein)
chain: SSSSDEEDERYVRLAIKFARFLFEAGDPEAARRILRAAIDVARRSGNPELVRELEELLEELSSSS
B3: il10ra_site1_sap_22_mot_HHH_b2_05111_af2_000000002_0001_42_56_H_._HHH_b2_01154_0001_0000300021_0000002_0_0001_af2pred_0001 (protein)
chain: SSSSSLIQQLLELLKRIIELLREGNPEEARELLEEAKELAEEAGNELVRLRLEFLERLVNSSSSS
B4: il10ra_site1_sap_27_mot_HHH_b1_06816_000000239_0001_1_19_H_._HHH_b1_03766_af2_0001_0000200012_0000001_0_0001_af2pred_0001 (protein)
chain: SSSSDEEEIERKVEELLEEAKHIEDPDELSYVLIRAYALANRGNDPELKRLVREVAQKLISSSSS
B5: il10ra_site1_normal_mot_HHH_b2_03220_af2_000000223_0001_23_40_H_._HHH_b1_07441_af2_0001_0000300030_0000002_0 (protein)
chain: SSSSSREANEQVWELIRRALELAANGNPEEAEKLLEEAERLAEENNNRVFLIQIEYLERQLSSSS
B6: il10ra_site1_sap_18_mot_HHH_b2_00816_af2_000000077_0001_1_19_H_._HHH_b1_04432_af2_0001_0000400023_0000001_1_0001_af2pred_0001 (protein)
chain: SSSSSSEEHARKSARFLLEAAKQLDDDEAVRRTLREAKHAAESVNDEELKEEIEEVIEELSSSSS
B7: il10ra_site1_normal_mot_HHH_b2_03434_000000017_0001_1_19_H_._HHH_b2_02344_0001_0000500077_0000001_0 (protein)
chain: SSSSSEHDELYELARRLIELAFEGDEEEVERLAEEAKELAKELNNEVLLRVIEWALRMHNSSSSS
B8: il10ra_site1_normal_mot_HHH_b1_05357_000000034_0001_23_39_H_._ems_3hC_894_0002_af2_0001_0000300010_0000002_0_af2pred_0001 (protein)
chain: SDLEARVAHLIIVIFALAHEKQDPRLEELAKELARLAVEAAIHNDEEKLEEVEERAREVVESGSS
B9: il10ra_site1_sap_10_mot_9de44d9dbda350e72dbd1fc967c0af38_0001_000000021_0001_54_65_H_._HHH_b2_06051_0002_0000100004_0000002_0_0001 (protein)
chain: SSSSDEEREIAEKAVRHFLKAAKRADEEYRELTLRFAKWTAEAVNDEELRKLVEEVEEELSSSSS
B10: il10ra_site1_sap_18_mot_HHH_b1_04771_000000013_0001_40_56_H_._HHH_b1_07552_0001_0000300030_0000001_0_0001 (protein)
chain: SSSSDEEREEALRLSLRIFHALLRGNEEEARELLEELKELAERLNDPRLEWAVESLKEAISSSSS
B11: il10ra_site1_normal_mot_8756ee2cf497b5429c717dfc0c0bcfd6_0001_000000186_0001_1_13_H_._HHH_b1_03452_af2_0001_0000100005_0000001_0 (protein)
chain: SSSSDAQEVVELLREAAELDSEGNPEEAEEVVERARELAEELNNDVLLATARYLERLIRSSSSSS
B12: il10ra_site1_normal_mot_HHH_b2_06857_af2_000000179_0001_42_54_H_._HHH_b2_07980_af2_0001_0000400035_0000002_0 (protein)
chain: SSSSSSSEAIERAIKLLRRAAQIEDEEEVEELLEEAKKLAEEAGNELLAWQIEFLERMLSSSSSS
B13: il10ra_site1_sap_24_mot_HHH_b2_02497_000000141_0001_1_20_H_._HHH_b2_04513_0001_0000100005_0000002_0_0001_af2pred_0001 (protein)
chain: SSSSEEAEELVKEVEEELRRLLEEGNYEEAFRLLREAIRRLIELGDPEAARELSELFLRLASSSS
B14: il10ra_site1_normal_mot_HHH_b2_07784_af2_000000103_0001_19_36_H_._HHH_b1_08449_af2_0001_0000600026_0000002_0 (protein)
chain: SSSSDEHYEKLKELIERIVEALRRNDPEKVEELLRELEELIEEYNNNAAKFALEQLERVLSSSSS
B15: il10ra_site1_normal_mot_HHH_b2_03220_af2_000000223_0001_23_40_H_._HHH_b1_02879_af2_0001_0000100007_0000001_0 (protein)
chain: SSSSDELAEEVWRLLREALQLLEEGNPEEAQEVVERALELAEEAGNELLAIQARFLLRQIESSSS
B16: il10ra_site1_sap_24_mot_HHH_b1_04177_000000174_0001_1_19_H_._HHH_b1_03006_0001_0000300020_0000001_0_0001 (protein)
chain: SSSSSHEEVYELLRRIAELDHDGDQERARELLEEAQEIAEEAGNVLFLWQLEYLQRLLEEHSSSS
B17: il10ra_site1_normal_mot_HHH_b1_05185_000000011_0001_22_39_H_._HHH_b2_07997_0001_0000900026_0000001_0 (protein)
chain: SSSSSDTEKEASEVFVRATRARWEGDEEQAKELLRELEEIAEEGNSEYARLSVRFLQALLSSSSS
B18: il10ra_site1_sap_18_mot_HHH_b1_01011_000000096_0001_1_19_H_._HHH_b1_06403_0001_0000300021_0000001_0_0001 (protein)
chain: SSSSSDEEELEELLEELERLVREGDFERALELAQEIIRLAFRLSDEEALRRLWELLRELVSSSSS
B19: il10ra_site1_normal_mot_HHH_b2_08186_000000021_0001_43_56_H_._HHH_b2_06600_af2_0001_0000100009_0000001_1 (protein)
chain: SSSSSDEELEELLKELKEALERGDQELFLRLLQEALRLAFRLNDEEALQELWELLRELVNSSSSS

This note sets out measurements from paper PMC10163288.

The other results are listed elsewhere or left out. Some results are limits rather than exact numbers.

This experiment concerns the target il10ra, Q13651. Put plainly: yeast display titration.
By apparent Kd is commonly meant the concentration giving half-maximal binding under the conditions of the assay. Regarding B1, the “apparent Kd” value was “inactive: no binding seen”. Then B2, with “inactive: no binding seen”. Take B3: the “apparent Kd” value is “inactive: no binding seen”. The result for B4 reads “inactive: no binding seen”; that for B5, “inactive: no binding seen”; that for B6, “inactive: no binding seen”. Then B7, with “inactive: no binding seen”; and B8, with “inactive: no binding seen”. The result for B9 reads “inactive: no binding seen”. Regarding B10, the “apparent Kd” value was “inactive: no binding seen”. Turning to B11, the “apparent Kd” value is “inactive: no binding seen”.

B12: the “apparent Kd” value was “inactive: no binding seen”.

For the molecule B13, the “apparent Kd” value was “inactive: no binding seen”. Take B14: the apparent Kd was inactive: > 1370 nM. With B15, the “apparent Kd” value is “inactive: no binding seen”. Turning to B16, the “apparent Kd” value was “inactive: no binding seen”. On to B17, for which the “apparent Kd” value is “inactive: no binding seen”. Then B18, with “inactive: no binding seen”; and B19, with “inactive: no binding seen”.
